Several values for one entry are separate records, joined by “and”; a condition that tells them apart may be missing. Equal values may be shown once. Hit rate of the full screen: of about 300,000 compounds, about 3,700 (1.2%) were called active. The inconclusive results got no clear call from the source; some entries with a clear call stand among them for comparison. Calls come from the whole dose curve; tested in HEK293 cells. A potency beside an inconclusive call is a rough fit, not a confirmed value.
Experiment: qHTS for Inhibitors of binding or entry into cells for Lassa Virus; note: nearly all actives have a fitted effect of over 50% in size
Settings: Lassa virus pseudotype entry inhibition, cell reporter; series mostly up to 37.9 µM
Potency is the fitted concentration of half-maximal effect.

SMILES	Potency
CC(C)(C)OC(=O)N1CCC(c2c(C(=O)Nc3ccc4c(c3)OCCO4)cnn2-c2ccc(F)cc2)CC1	inconclusive: 10 µM [activator, partial curve, poor fit]
O=C(Nc1cccnc1Cl)c1ccc(Cl)c([N+](=O)[O-])c1	inactive
Cc1ccc(CNC(C)c2ccccc2)s1 (centres undefined)	inconclusive: 2.51 µM [inhibitor, partial curve, poor fit]
COc1cccc2cc(NC(=O)C3CCCCC3)c(=O)oc12	inactive
COc1ccc(C2C(=O)N(C3CCCCCC3)CC(=O)N2CCc2ccccc2)cc1 (centres undefined)	inconclusive: 17.8 µM [activator, single point]
CCCOc1ccc(S(=O)(=O)NCc2ccc(OC)cc2)cc1	inconclusive: 35.5 µM [inhibitor, single point]
CCN(c1ccc(C)cc1C)S(=O)(=O)c1nnc(NC(=O)C(C)(C)C)s1	inconclusive: 5.01 µM [inhibitor, single point]
CCN(CC)S(=O)(=O)c1ccc(OCC(=O)NCc2ccccc2)cc1	inconclusive: 1.83 µM [inhibitor, full curve]
COc1ccc(CNCC(O)(c2ccc(Cl)cc2)c2ccc(Cl)cc2)cc1OC	inconclusive: 29.1 µM [inhibitor, single point]
CC(=O)Nc1ccc(NC(=O)CN2CCCC(C)C2)c(Cl)c1 (centres undefined)	inconclusive: 12.6 µM [activator, single point]
O=C(NNc1nc(-c2ccccc2)cs1)c1ccco1	inconclusive: 35.5 µM [inhibitor, partial curve, poor fit]
O=C(CSc1ccc2ccccc2n1)NCCC1=CCCCC1	inconclusive: 22.4 µM [inhibitor, single point]
COc1ccc2oc(C(=O)OCC(=O)Nc3ccccc3)c(C)c2c1	inconclusive: 12.6 µM [activator, partial curve, poor fit]
CCOC(=O)C(Cc1ccnc2ccccc12)=NO	inactive
Cc1ccc(C(CC(=O)NCC2(c3ccccc3)CCCC2)c2ccccc2)c(O)c1 (centres undefined)	inconclusive: 2.82 µM [inhibitor, full curve]
O=C(CCSCc1ccc(Cl)cc1)NC1CCCC1	inconclusive: 1.12 µM [inhibitor, full curve, poor fit]
CCc1nnc(NC(=O)[C@@H](NS(=O)(=O)c2ccc3c(c2)OCCO3)C(C)C)s1	inconclusive: 7.08 µM [activator, full curve, poor fit]
O=C(COc1ccc(Cl)cc1)N1CCN(C/C=C/c2ccccc2)CC1	inconclusive: 35.5 µM [inhibitor, single point]
CCOC(=O)C1CCN(C(=O)CSc2n[nH]c(-c3ccccc3Cl)n2)CC1	inactive
O=C1CN(C(=O)c2ccc(Cl)cc2Cl)C(c2ccc(F)cc2)c2cc(F)ccc2N1 (centres undefined)	inconclusive: 10 µM [inhibitor, partial curve, poor fit]
COc1ccccc1N=Cc1c(C)[nH]n(-c2ccc(C)cc2C)c1=O	inconclusive: 31.6 µM [inhibitor, partial curve, poor fit]
Brc1ccccc1CN1CCC(N2CCCCC2)CC1	inconclusive: 20.6 µM [inhibitor, partial curve, poor fit]
CC1CCN(S(=O)(=O)c2ccc3ncn(CC(=O)Nc4ccccc4C(F)(F)F)c(=O)c3c2)CC1	inactive

SMILES	Potency
COc1ccc(C)cc1NC(=O)c1cc2c(s1)-c1ccccc1SC2	inactive
O=c1c(-c2ccc3c(c2)OCCO3)coc2cc(O)cc(O)c12	inactive
CCOC(=O)CC(NC(=O)Cn1nnc(-c2ccc(C(F)(F)F)cc2)n1)c1ccccc1Cl (centres undefined)	inactive
Cc1cc(/C=N\NC(=O)CC(=O)NC2CCCCC2)c(C)n1-c1ccc(Cl)c(Cl)c1	inactive
COc1ccc2c(CCNC(=O)/C=C/c3ccc(OC)c(OC)c3)c[nH]c2c1	inconclusive: 15.8 µM [inhibitor, single point]
COc1ccccc1N1CCN(C(=O)Cc2c(C(=O)O)[nH]c3ccc(Cl)cc23)CC1	inactive
Cc1ccc(-c2nn3cnnc3c3ccccc23)cc1	inactive
CCCCOC(=O)Nc1cccc(C(=O)OCC)c1	inactive
COc1ccc([N+](=O)[O-])cc1N(CC(=O)NCCC1=CCCCC1)S(C)(=O)=O	inconclusive: 5.01 µM [activator, full curve, poor fit]
Cc1ccc(S(=O)(=O)N2CCN(c3ccc([N+](=O)[O-])c4cccnc34)CC2)cc1	inconclusive: 3.16 µM [inhibitor, single point]
CC1(C)CC(=O)C(C=Nc2cccnc2)=C(O)C1	inactive
C=CCSc1nc(N)c(C#N)c(-c2ccc(C)cc2)c1C#N	inactive
Cc1cc(C)cc(NC(=O)CSc2nnc(COc3ccccc3Cl)o2)c1	inactive
CCOC(=O)c1c(-c2ccc(F)cc2)csc1NC(=O)CCN1CCOCC1	inactive
Cc1ccc(C)c(NC(=O)CCCN2C(=O)COc3ccc(C)cc32)c1	inactive
CN(C)c1ccc(CNC(=O)c2cc3ccccn3n2)cc1	inconclusive: 35.5 µM [inhibitor, single point]
COc1cccc(C2C(C(=O)Nc3ccc(Cl)cc3)=C(C)Nc3c(C(=O)Nc4ccccc4)cnn32)c1OC (centres undefined)	inconclusive: 25.1 µM [inhibitor, single point]
COc1ccc(/C=C/C(=O)Nc2ccc3nc(N4CCC(C)CC4)cc(C)c3c2)cc1OC	inconclusive: 35.5 µM [inhibitor, single point]
Cn1c(=O)c2c(nc(SCC(=O)Nc3ccc(F)cc3F)n2Cc2ccccc2)n(C)c1=O	inactive
O=C(CSc1nc2ccc(NC(=O)C3CCCCC3)cc2s1)NCC1CCCO1 (centres undefined)	inconclusive: 5.62 µM [inhibitor, full curve, poor fit]
CCc1c(C#N)c(SCCC(=O)Nc2ccc(F)cc2)nc2c1C(=O)CC(C)(C)C2	inconclusive: 17.8 µM [inhibitor, single point]
COc1cc2ncnc(NCc3cc(F)ccc3F)c2cc1OC	inconclusive: 5.62 µM [inhibitor, single point]
CN1CC(=O)N/C1=N/C(=O)Nc1cccc(Cl)c1	inconclusive: 18.3 µM [activator, partial curve]

Five consecutive entries out of the list so far, quoted:
SMILES	Potency
O=c1c(-c2ccc3c(c2)OCCO3)coc2cc(O)cc(O)c12	inactive
CCOC(=O)CC(NC(=O)Cn1nnc(-c2ccc(C(F)(F)F)cc2)n1)c1ccccc1Cl (centres undefined)	inactive
Cc1cc(/C=N\NC(=O)CC(=O)NC2CCCCC2)c(C)n1-c1ccc(Cl)c(Cl)c1	inactive
COc1ccc2c(CCNC(=O)/C=C/c3ccc(OC)c(OC)c3)c[nH]c2c1	inconclusive: 15.8 µM [inhibitor, single point]
COc1ccccc1N1CCN(C(=O)Cc2c(C(=O)O)[nH]c3ccc(Cl)cc23)CC1	inactive

Further entries:

SMILES	Potency
Cc1ccc(NC(=O)COC(=O)CN2C(=O)NC3(CCCC3)C2=O)cc1F	inconclusive: 35.5 µM [activator, single point]
O=c1[nH]n(-c2ccc([N+](=O)[O-])cc2)c(=O)c2ccccc12	inconclusive: 14.1 µM [inhibitor, single point]
COc1ccc(CNC(=O)C(c2ccco2)N(C(=O)CNS(=O)(=O)c2ccccc2)c2ccccc2C)cc1 (centres undefined)	inconclusive: 9.2 µM [inhibitor, partial curve] and inconclusive: 11.2 µM [inhibitor, partial curve]
Oc1ccc(CN2CCN(Cc3ccccc3)CC2)c2cccnc12	inconclusive: 20.6 µM [inhibitor, single point]
Cc1ccc(NC(=O)Cn2c(=O)n(-c3ccc(C)cc3)c(=O)c3ccc(C(=O)NCc4ccccc4Cl)cc32)cc1	inconclusive: 2.82 µM [inhibitor, single point]
CCCCn1c(N)c(N(CCC(C)C)C(=O)COC(=O)/C=C/c2ccc(F)cc2)c(=O)[nH]c1=O	inconclusive: 8.91 µM [inhibitor, partial curve, poor fit]
O=C(NCc1cccs1)c1nn(-c2ccccc2)nc1CO	inconclusive: 11.2 µM [inhibitor, single point]
CCOc1ccc(CNC(=O)CN2C(=O)CCn3nc(-c4cn(C)c5ccccc45)cc32)cc1OC	inactive
COc1ccccc1NC(=O)c1cc2c(s1)-c1ccccc1S(=O)(=O)C2	inconclusive: 11.6 µM [inhibitor, partial curve, poor fit]
COc1ccc(S(=O)(=O)N2CCN(Cc3nc4ccc(C)cc4o3)CC2)cc1OC	inactive
O=S(=O)(c1ccccc1)N1CCC(Oc2ccc(-n3cnnn3)cc2)CC1	inconclusive: 35.5 µM [inhibitor, single point]
CC1CC(C)CN(c2ncc3c(n2)CC(c2ccccc2)CC3=O)C1 (centres undefined)	active: 2.82 µM
CC(C)c1onc(C(=O)NC2CCCCC2)c1[N+](=O)[O-]	inactive
c1coc(CNc2c3c(nc4ncnn24)CCC3)c1	inactive
COc1ccc(Nc2nc(N)c([N+](=O)[O-])c(NC3CCCCC3)n2)cc1	inconclusive: 35.5 µM [inhibitor, single point]
O=C(O)Cc1c[nH]c2ccc(O)cc12	inconclusive: 29.1 µM [activator, single point]
COc1ccc(NC(=S)NCCCN2CCCC2)cc1	inconclusive: 35.5 µM [inhibitor, single point]
CCOc1ccc(NC(=O)CN(c2ccccc2OCC)S(=O)(=O)c2ccccc2)cc1	inconclusive: 11.2 µM [inhibitor, partial curve, poor fit]
Cn1cc(Cl)c(C(=O)Nc2nc3ccc([N+](=O)[O-])cc3s2)n1	inconclusive: 2.82 µM [activator, partial curve, poor fit]
C=CCSc1nsc(N)n1	inactive
CCCc1ccc(-c2ccc(C(=O)O)cc2)nc1	active: 11.6 µM
CC(=O)c1ccccc1Oc1nc(CN2CCOCC2)nc2scc(-c3cccs3)c12	inactive
COc1ccc(C(=O)NCC(=O)NCC(=O)OCC(=O)c2cccs2)cc1	inconclusive: 3.16 µM [activator, single point]

Source: PubChem BioAssay AID540256 (National Center for Advancing Translational Sciences (NCATS), 2011)
